The list does not hold the whole screen: it gathers tests that were run many times, whatever their T/C, doses with no T/C, and many T/C values between a quarter and a half above the control. Further doses and runs are listed elsewhere. T/C: endpoint of the treated group in % of that of the vehicle group. Some entries give survivors of the animals treated and no T/C: the source files T/C as zero there, which appears to mark a toxic dose or a test without result, not a measured value. Some survivor counts are full or nearly so, which does not show that the dose was tolerated: the source hardly ever lists a survival T/C far under the control, and the zero likely stands for such cases as well. Survivors were counted at the toxicity check, usually on the fifth day, unless a day is given; later deaths do not show. Schedule codes are those of the source, taken here to give the interval after Q, in days (D) or hours (H), and the number of doses after X. Some schedule codes hold Z or #, which are not explained here. Where survival is the endpoint, the PubChem record calls one and a half times the control and up active, and a quarter to a half above the control has no call in these data; cut-offs in other NCI protocols can differ. Some entries were tested several times; the results are listed from low to high. Some T/C values carry the count of animals alive at the toxicity check (mostly the fifth day); without a count, all were alive then.

The experiment concerns BDF1 mice, P388 leukemia ip, median survival T/C. In words: NCI In Vivo Anticancer Drug Screen. Data for tumor model P388 Leukemia (intraperitoneal) in B6D2F1 (BDF1) mice. As to conditions: T/C endpoint: median survival time, higher T/C = longer survival. The method in brief: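 Mice carrying the transplantable tumour receive compound or vehicle. Survival is followed in each arm, and the treated measure is divided by the vehicle measure.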

The mark [1] stands for this setting: dose: 50.0 mg/kg/injection, schedule: Q01DX009 (ip), vehicle: saline with Tween-80.
[2] abbreviates: dose: 100.0 mg/kg/injection, schedule: Q01DX009 (ip), vehicle: saline with Tween-80.
The mark [3] stands for this setting: dose: 200.0 mg/kg/injection, schedule: Q01DX009 (ip), vehicle: saline with Tween-80.
The mark [4] stands for this setting: dose: 400.0 mg/kg/injection, schedule: Q01DX009 (ip), vehicle: saline with Tween-80.
Setting [5] is: dose: 400.0 mg/kg/injection, schedule: Q04DX003 (ip), vehicle: saline with Tween-80.

Consider `CC(O)c1nc(N)nc(N)c1-c1ccc(Cl)cc1` (stereo not drawn), for which, for the setting “dose: 400.0 mg/kg/injection, schedule: Q01DX001 (ip), vehicle: saline with Tween-80”, the survivor count is reported as 3 of 6.
As to `Cc1cc(N(CCCl)CCCl)ccc1C=Nc1ccccc1C(=O)O`, the T/C under setting [1] is 128 % of control. Also, the survivor count (dose: 300.0 mg/kg/injection, schedule: Q01DX009 (ip), vehicle: saline with Tween-80) was 5 of 6.
Consider `O=C(O)COc1ccc(-c2ccc(Br)cc2)cc1`, for which, under setting [2], the survivor count was 6 of 6.
`CC(CCl)N(CCCl)Cc1cccc(Nc2ncnc3nc[nH]c23)c1` (stereo not drawn): the T/C by setting is: (dose: 0.37 mg/kg/injection, schedule: Q01DX009 (ip), vehicle: saline) 136 % of control; (dose: 0.44 mg/kg/injection, schedule: Q04DX003 (ip), vehicle: saline) 136 % of control; (dose: 0.66 mg/kg/injection, schedule: Q04DX003 (ip), vehicle: saline) 136 % of control; (dose: 0.75 mg/kg/injection, schedule: Q01DX009 (ip), vehicle: saline) 136 % of control; (dose: 1.0 mg/kg/injection, schedule: Q04DX003 (ip), vehicle: saline) 145 % of control; (dose: 1.3 mg/kg/injection, schedule: Q01DX009 (ip), vehicle: saline) 148 % of control. For the same compound, the T/C (dose: 1.5 mg/kg/injection, schedule: Q04DX003 (ip), vehicle: saline) is 140 % of control. In addition, the survivor count reads like this: (dose: 20.0 mg/kg/injection, schedule: Q04DX003 (ip), vehicle: saline) 2 of 6; (dose: 40.0 mg/kg/injection, schedule: Q04DX003 (ip), vehicle: saline) 0 of 6.
Take `ClC(Cl)(Cl)c1ccc(C(Cl)(Cl)Cl)cc1`: the T/C (dose: 25.0 mg/kg/injection, schedule: Q01DX009 (ip), vehicle: Klucel (hydroxypropylcellulose) (HPC)) was 125 and 129 % of control; the T/C (dose: 50.0 mg/kg/injection, schedule: Q04DX003 (ip), vehicle: Klucel (hydroxypropylcellulose) (HPC)) was 136 % of control; the T/C (dose: 75.0 mg/kg/injection, schedule: Q04DX003 (ip), vehicle: Klucel (hydroxypropylcellulose) (HPC)) was 136 % of control. Further, the survivor count (dose: 100.0 mg/kg/injection, schedule: Q01DX009 (ip), vehicle: Klucel (hydroxypropylcellulose) (HPC)) was 6 of 6.
`NC(CSC(c1ccccc1)(c1ccccc1)c1ccc(Cl)cc1)C(=O)O` (stereo not drawn): the survivor count is listed as 6 of 6 under setting [2] and 5 of 6 under setting [3].
Take `c1ccc(Nc2n[n+](-c3ccccc3)no2)cc1`: under setting [4], the survivor count was 3 of 6.
Regarding `C(=C/c1nc2ccccc2o1)/c1ccc2c(c1)OCO2`, where the note is “dose: 400.0 mg/kg/injection, schedule: Q01DX011 (ip), vehicle: Klucel (hydroxypropylcellulose) (HPC)”, the T/C was 125 % of control.
In the case of `Cc1cccc2c(Nc3ccc(NS(C)(=O)=O)cc3)c3ccccc3nc12`, the T/C (dose: 1.33 mg/kg/injection, schedule: Q01DX009 (ip), vehicle: saline with Tween-80) is 130 % of control; the T/C (dose: 2.0 mg/kg/injection, schedule: Q01DX009 (ip), vehicle: saline with Tween-80) is 145 % of control; the T/C (dose: 4.4 mg/kg/injection, schedule: Q04DX003 (ip), vehicle: saline with Tween-80) was 131 % of control; the T/C (dose: 6.6 mg/kg/injection, schedule: Q04DX003 (ip), vehicle: saline with Tween-80) is 140 % of control; the T/C (dose: 8.8 mg/kg/injection, schedule: Q04DX003 (ip), vehicle: saline with Tween-80) was 136 % of control; the T/C (dose: 10.0 mg/kg/injection, schedule: Q04DX003 (ip), vehicle: saline with Tween-80) is 136 % of control. Also, the T/C (dose: 13.2 mg/kg/injection, schedule: Q04DX003 (ip), vehicle: saline with Tween-80) is 145 % of control. Moreover, the survivor count reads like this: (dose: 40.0 mg/kg/injection, schedule: Q01DX009 (ip), vehicle: saline with Tween-80) 6 of 6; under setting [5], 5 of 6.
With `CCOC(=O)C(NC(=O)C(Cc1ccc(N(CCCl)CCCl)cc1)NC(C)=O)C(C)C` (stereo not drawn), the T/C by setting is: (dose: 20.0 mg/kg/injection, schedule: Q04DX003 (ip), vehicle: other) 142 % of control; (dose: 66.0 mg/kg/injection, schedule: Q04DX003 (ip), vehicle: saline with Tween-80) 136 % of control; (dose: 100.0 mg/kg/injection, schedule: Q04DX003 (ip), vehicle: saline with Tween-80) 140 % of control; (dose: 150.0 mg/kg/injection, schedule: Q04DX003 (ip), vehicle: saline with Tween-80) 140 % of control.
`O=C1CSC(c2ccccc2)N1` (stereo not drawn): the survivor count (dose: 200.0 mg/kg/injection, schedule: Q04DX003 (ip), vehicle: Klucel (hydroxypropylcellulose) (HPC)) is reported as 6 of 6.
Take `NC12CC3CC(CC(C3)C1)C2`: the survivor count (dose: 200.0 mg/kg/injection, schedule: Q01DX010 (ip), vehicle: saline) is recorded as 3 of 6.
For the compound `COc1ccc2c(c1)NC(c1ccccc1C(=O)O)c1cccn1-2` (stereo not drawn), the survivor count is recorded as 6 of 6 under setting [1], 6 of 6 under setting [2] and 5 of 6 under setting [3].
`CCCCCCCCCCOP(N)(=O)OCCCCCCCCCC`: the survivor count is 6 of 6 under setting [3] and 2 of 6 under setting [5].
As to `CC1CC(C)(C)C2=NCCN21` (stereo not drawn), the survivor count (dose: 200.0 mg/kg/injection, schedule: Q01DX009 (ip), vehicle: water) was 0 of 6; the survivor count (dose: 400.0 mg/kg/injection, schedule: Q01DX009 (ip), vehicle: water) was 0 of 6; the survivor count (dose: 800.0 mg/kg/injection, schedule: Q01DX009 (ip), vehicle: water) is 0 of 6; the survivor count (dose: 1600.0 mg/kg/injection, schedule: Q01DX009 (ip), vehicle: water) is given as 0 of 6.
For the compound `S=c1nn[nH]n1-c1ccccc1.[Zn+2]`, the survivor count under setting [3] is given as 2 of 6.
On to `C/C=C1\CN(C(=O)C(NC(=O)C(N)C(O)C(O)COC(N)=O)C2OC(n3cc(C(=O)O)c(=O)[nH]c3=O)C(O)C2O)C1C(=O)O` (stereo not drawn) (tested in a mixture with another compound), for which the survivor count (dose: 400.0 mg/kg/injection, schedule: Q01DX008 (ip), vehicle: saline) is 6 of 6.
In the case of `CCOC(=O)CC(=O)N/N=C(/C)C(=O)OCC`, the survivor count under setting [4] is recorded as 4 of 6.
For the compound `COc1cc(Br)cc(C(=O)O)c1OC`, the survivor count (dose: 200.0 mg/kg/injection, schedule: Q01DX009 (ip), vehicle: distilled water + Tween-80) is reported as 3 of 6 and the survivor count (dose: 400.0 mg/kg/injection, schedule: Q01DX009 (ip), vehicle: distilled water + Tween-80) was 3 of 6.
Take `CCCC(=O)N(C)C(C)C(=O)OC1CC(=O)N(C)c2cc(cc(OC)c2Cl)C/C(C)=C/C=CC(OC)C2(O)CC(OC(=O)N2)C(C)C2OC12C` (stereo not drawn): the T/C is, setting by setting: (dose: 12.5 micrograms/kg/injection, schedule: Q01DX009 (ip), vehicle: saline + alcohol) 128 % of control; (dose: 25.0 micrograms/kg/injection, schedule: Q01DX009 (ip), vehicle: saline + alcohol) 128 % of control; (dose: 100.0 micrograms/kg/injection, schedule: Q01DX009 (ip), vehicle: saline + alcohol) 125 % of control; (dose: 100.0 micrograms/kg/injection, schedule: Q01DX009 (ip), vehicle: saline) 139 % of control; (dose: 200.0 micrograms/kg/injection, schedule: Q01DX009 (ip), vehicle: saline) 139 % of control [5 of 6 alive]. Also, the survivor count is, setting by setting: (dose: 50.0 nanograms/kg/injection, schedule: Q## X009 (ip), vehicle: other) 5 of 6; (dose: 100.0 nanograms/kg/injection, schedule: Q## X009 (ip), vehicle: other) 6 of 6.
As to `Nc1ccc(S(=O)(=O)c2cc(O)c3ccccc3c2O)cc1`, the survivor count by setting is: (dose: 35.0 mg/kg/injection, schedule: Q01DX009 (ip), vehicle: Klucel (hydroxypropylcellulose) (HPC)) 0 of 6; (dose: 80.0 mg/kg/injection, schedule: Q01DX009 (ip), vehicle: Klucel (hydroxypropylcellulose) (HPC)) 1 of 6. In addition, the T/C (dose: 55.0 mg/kg/injection, schedule: Q01DX009 (ip), vehicle: Klucel (hydroxypropylcellulose) (HPC)) is 135 % of control.
Turning to `COC(=S)SCN(CSC(=S)OC)c1ccccc1Cl`, the T/C under setting [3] was 140 % of control; the T/C (dose: 264.0 mg/kg/injection, schedule: Q01DX009 (ip), vehicle: saline with Tween-80) is 137 % of control; the T/C under setting [4] was 141 % of control.

The record behind these values is PubChem BioAssay AID328 (DTP/NCI, 2004).
